The results in this text go back to publication PMC8016872.

Sequences of proteins named here, by UniProt entry; tags and fusion partners are left off.
UniProt P17844: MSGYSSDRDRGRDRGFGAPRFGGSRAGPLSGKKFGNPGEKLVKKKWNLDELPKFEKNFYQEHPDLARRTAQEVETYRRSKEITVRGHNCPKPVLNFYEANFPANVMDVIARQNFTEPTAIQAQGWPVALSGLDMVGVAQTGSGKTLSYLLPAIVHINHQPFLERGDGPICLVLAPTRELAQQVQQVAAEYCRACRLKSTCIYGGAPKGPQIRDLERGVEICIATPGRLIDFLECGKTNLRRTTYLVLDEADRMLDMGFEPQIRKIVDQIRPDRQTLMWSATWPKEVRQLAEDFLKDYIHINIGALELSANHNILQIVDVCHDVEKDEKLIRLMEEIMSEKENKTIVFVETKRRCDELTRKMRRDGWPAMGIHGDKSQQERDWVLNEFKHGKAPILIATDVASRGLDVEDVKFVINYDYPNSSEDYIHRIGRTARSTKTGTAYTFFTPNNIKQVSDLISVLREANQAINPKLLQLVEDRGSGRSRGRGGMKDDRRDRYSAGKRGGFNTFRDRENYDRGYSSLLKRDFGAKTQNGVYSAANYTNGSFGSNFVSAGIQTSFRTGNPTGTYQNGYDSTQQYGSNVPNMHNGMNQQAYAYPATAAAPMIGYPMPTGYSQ
UniProt Q08211: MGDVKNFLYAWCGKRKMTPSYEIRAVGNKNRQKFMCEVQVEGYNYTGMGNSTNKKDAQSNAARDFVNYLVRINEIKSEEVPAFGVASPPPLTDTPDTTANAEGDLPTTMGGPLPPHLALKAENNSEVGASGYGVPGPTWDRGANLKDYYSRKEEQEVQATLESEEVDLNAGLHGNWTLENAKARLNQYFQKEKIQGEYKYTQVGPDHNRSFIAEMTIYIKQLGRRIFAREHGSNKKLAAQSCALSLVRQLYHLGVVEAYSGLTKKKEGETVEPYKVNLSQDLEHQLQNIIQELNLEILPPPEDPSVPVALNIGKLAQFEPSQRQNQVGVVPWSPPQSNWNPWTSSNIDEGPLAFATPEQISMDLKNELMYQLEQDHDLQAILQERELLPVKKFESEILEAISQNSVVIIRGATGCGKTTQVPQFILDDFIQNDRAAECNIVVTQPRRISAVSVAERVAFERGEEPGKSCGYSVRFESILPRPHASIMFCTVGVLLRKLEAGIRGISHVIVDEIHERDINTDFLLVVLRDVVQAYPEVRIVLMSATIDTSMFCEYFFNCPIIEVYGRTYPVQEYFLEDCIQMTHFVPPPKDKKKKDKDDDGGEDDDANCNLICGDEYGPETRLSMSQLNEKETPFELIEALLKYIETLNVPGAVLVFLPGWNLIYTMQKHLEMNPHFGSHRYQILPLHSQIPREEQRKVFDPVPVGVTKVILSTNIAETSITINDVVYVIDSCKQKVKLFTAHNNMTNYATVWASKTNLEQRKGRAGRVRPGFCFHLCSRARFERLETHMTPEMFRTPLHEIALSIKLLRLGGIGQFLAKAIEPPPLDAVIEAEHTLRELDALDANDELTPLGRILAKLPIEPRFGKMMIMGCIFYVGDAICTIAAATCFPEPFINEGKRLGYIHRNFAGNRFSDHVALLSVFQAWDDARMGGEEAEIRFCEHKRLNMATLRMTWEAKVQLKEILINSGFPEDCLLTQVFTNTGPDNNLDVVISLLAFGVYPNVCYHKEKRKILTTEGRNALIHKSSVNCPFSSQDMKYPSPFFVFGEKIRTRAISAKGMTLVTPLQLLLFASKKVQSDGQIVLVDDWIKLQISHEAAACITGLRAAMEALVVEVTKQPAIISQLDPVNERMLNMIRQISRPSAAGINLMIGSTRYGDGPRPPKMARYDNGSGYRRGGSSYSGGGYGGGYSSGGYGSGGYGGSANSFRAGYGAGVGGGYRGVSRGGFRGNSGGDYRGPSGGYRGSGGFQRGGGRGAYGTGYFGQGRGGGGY
UniProt P06748: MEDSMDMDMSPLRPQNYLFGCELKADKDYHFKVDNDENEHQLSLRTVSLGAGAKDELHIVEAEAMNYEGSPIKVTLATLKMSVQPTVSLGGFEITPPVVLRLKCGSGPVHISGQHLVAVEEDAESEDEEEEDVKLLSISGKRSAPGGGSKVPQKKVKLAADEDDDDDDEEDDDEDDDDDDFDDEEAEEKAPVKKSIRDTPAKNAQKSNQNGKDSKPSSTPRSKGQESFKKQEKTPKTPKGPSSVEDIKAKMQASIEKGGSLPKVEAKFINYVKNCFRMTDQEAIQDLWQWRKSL
UniProt P38936: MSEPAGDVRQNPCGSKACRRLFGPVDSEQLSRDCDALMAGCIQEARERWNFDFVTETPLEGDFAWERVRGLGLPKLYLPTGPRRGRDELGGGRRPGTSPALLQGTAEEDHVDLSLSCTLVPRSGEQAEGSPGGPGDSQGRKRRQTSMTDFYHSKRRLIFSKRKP

Results are given in words; binding and its absence hold for the method and conditions named. In cells and extracts the contact can be indirect. Some entries that bind do so weakly or less than the wild type.

The target of test [1] is DDX5 (p68) (human (endogenous in H1299 or A549)) (UniProt P17844). The experiment in a line: co-IP; endogenous proteins; cells lysed in RIPA buffer, pre-cleared lysates immunoprecipitated with the indicated antibodies 3 h at 4 °C, Protein G beads overnight, six washes (50 mM Tris-HCl pH 7.5, 150 mM NaCl, 1 mM MgCl2, 0.05% IGEPAL CA-630), immunoblot; reverse IP (Fig. 6d, 7c); Drosha/p21 in H1299 and A549. In general terms: A western blot detects proteins with antibodies after separation by electrophoresis.

The target is the same in test [2]. The experiment in a line: co-IP; co-IP with RNase A treatment (Fig. 6f); immunoblot.
Test [3] addresses FLAG-tagged DHX9 (UniProt Q08211). The experiment in a line: co-IP; H1299 cells transfected with a FLAG-tagged DHX9 expression vector; immunoprecipitation with a FLAG-specific antibody; immunoblot for endogenous NPM1.
Test [4] addresses T1, Drosha (human (endogenous in H1299 and A549)) (UniProt Q9NRR4).
T1 sequence: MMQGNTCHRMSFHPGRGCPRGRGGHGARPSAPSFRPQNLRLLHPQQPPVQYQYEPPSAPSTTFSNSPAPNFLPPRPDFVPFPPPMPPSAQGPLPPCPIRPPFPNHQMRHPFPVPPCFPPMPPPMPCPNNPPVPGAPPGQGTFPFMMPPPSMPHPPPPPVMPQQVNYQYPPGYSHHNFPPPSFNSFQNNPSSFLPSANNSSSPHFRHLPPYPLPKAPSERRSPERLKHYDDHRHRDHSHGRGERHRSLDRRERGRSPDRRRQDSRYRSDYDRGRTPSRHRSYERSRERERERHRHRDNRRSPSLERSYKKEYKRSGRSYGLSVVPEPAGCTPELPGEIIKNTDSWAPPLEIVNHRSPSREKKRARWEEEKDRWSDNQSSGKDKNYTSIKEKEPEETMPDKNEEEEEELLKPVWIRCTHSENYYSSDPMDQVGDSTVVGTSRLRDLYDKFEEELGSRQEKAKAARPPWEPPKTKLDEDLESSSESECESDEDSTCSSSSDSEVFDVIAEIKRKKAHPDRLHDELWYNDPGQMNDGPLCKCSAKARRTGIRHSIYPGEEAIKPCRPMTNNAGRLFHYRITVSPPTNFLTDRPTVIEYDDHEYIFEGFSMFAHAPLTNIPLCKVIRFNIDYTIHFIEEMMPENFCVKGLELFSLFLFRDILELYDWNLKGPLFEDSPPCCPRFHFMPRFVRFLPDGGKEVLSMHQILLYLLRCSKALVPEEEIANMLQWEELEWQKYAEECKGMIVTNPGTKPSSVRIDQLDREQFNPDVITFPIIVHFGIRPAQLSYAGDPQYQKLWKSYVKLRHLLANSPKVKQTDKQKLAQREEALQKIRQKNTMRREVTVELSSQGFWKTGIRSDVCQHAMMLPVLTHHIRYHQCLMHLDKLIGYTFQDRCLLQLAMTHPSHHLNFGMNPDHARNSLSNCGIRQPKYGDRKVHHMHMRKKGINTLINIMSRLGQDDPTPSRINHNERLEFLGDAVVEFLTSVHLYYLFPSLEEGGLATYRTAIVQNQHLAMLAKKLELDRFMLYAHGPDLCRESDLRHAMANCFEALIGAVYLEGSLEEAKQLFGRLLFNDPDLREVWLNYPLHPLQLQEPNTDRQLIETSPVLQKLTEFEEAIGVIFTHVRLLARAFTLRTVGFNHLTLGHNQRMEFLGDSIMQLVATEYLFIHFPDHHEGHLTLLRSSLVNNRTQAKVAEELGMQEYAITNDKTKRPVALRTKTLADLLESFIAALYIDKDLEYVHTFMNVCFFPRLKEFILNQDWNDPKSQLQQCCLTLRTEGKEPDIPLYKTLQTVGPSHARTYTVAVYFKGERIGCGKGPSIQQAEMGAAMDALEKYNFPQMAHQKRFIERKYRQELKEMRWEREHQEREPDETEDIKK
Briefly: co-IP; endogenous proteins; cells lysed in RIPA buffer, pre-cleared lysates immunoprecipitated with the indicated antibodies 3 h at 4 °C, Protein G beads overnight, six washes (50 mM Tris-HCl pH 7.5, 150 mM NaCl, 1 mM MgCl2, 0.05% IGEPAL CA-630), immunoblot; reverse IP (Fig. 6d, 7c); Drosha/p21 in H1299 and A549.

For NPM1 (from UniProt P06748 1-294), the binding entry in test [1] is “binds”; in test [2] it was “no binding (condition: with RNase A treatment)”; in test [3], “binds”.

Turning to “p21 (CDKN1A) (from UniProt P38936 1-164)”, the binding entry in test [4] was “binds”.
